# In PMC11792374:
# By UniProt entry, the sequences of proteins in these tests, tags left out.
# UniProt O95477: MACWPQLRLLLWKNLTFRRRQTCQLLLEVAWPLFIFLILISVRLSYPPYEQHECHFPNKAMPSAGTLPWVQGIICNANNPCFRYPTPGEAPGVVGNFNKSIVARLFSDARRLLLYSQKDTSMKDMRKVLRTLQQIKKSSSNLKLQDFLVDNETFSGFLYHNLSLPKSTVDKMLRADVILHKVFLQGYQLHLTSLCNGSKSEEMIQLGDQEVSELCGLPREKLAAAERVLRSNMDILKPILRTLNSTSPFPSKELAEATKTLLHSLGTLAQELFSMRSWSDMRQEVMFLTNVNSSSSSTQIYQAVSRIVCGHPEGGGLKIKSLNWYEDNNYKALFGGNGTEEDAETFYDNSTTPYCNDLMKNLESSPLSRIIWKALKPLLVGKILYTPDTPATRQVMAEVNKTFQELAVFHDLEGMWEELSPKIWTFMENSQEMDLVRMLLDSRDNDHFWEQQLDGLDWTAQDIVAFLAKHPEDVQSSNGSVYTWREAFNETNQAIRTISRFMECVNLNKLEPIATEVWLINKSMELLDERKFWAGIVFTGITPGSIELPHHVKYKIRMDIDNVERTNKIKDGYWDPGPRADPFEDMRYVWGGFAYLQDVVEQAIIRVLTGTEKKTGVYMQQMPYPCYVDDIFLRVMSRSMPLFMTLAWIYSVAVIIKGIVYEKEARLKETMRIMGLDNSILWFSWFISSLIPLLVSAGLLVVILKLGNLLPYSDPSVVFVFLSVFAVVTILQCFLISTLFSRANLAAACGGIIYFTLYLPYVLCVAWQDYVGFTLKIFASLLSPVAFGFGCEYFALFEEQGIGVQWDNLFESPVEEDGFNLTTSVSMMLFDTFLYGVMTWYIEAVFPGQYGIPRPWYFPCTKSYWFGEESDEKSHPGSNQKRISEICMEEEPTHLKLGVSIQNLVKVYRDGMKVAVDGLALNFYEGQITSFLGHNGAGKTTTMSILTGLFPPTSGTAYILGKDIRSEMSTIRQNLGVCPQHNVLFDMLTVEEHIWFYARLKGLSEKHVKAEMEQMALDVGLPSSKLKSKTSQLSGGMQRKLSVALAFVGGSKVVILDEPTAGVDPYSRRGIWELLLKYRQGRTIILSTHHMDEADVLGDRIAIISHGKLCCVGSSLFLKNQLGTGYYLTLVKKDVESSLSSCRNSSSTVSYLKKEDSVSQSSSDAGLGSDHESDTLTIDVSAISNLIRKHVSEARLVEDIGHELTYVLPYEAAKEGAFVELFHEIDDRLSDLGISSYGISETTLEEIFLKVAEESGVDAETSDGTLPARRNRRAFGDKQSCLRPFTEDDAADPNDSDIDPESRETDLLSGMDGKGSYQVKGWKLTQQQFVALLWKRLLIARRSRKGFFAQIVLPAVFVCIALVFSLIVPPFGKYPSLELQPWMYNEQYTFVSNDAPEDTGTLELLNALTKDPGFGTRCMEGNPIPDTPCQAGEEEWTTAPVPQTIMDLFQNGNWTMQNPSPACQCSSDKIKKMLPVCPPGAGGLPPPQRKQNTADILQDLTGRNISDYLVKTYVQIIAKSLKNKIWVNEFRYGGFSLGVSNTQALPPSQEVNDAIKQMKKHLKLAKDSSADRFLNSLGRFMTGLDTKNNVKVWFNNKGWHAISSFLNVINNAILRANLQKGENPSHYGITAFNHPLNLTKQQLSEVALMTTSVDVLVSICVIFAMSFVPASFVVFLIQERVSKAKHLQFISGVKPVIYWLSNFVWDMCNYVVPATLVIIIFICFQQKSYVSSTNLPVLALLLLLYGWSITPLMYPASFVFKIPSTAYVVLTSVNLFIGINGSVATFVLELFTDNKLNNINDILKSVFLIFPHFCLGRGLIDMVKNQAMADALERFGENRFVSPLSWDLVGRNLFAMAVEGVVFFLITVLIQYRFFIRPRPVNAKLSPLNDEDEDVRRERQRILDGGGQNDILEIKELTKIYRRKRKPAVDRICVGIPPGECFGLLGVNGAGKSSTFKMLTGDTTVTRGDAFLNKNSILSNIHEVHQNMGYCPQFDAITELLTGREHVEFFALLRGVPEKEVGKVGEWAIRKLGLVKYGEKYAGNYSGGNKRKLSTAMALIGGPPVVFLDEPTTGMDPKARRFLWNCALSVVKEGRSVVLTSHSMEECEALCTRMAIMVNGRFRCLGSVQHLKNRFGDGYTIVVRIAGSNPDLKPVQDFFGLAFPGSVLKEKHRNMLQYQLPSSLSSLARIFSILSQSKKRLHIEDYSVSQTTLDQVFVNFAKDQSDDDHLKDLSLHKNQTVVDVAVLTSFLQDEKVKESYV
# UniProt P63010: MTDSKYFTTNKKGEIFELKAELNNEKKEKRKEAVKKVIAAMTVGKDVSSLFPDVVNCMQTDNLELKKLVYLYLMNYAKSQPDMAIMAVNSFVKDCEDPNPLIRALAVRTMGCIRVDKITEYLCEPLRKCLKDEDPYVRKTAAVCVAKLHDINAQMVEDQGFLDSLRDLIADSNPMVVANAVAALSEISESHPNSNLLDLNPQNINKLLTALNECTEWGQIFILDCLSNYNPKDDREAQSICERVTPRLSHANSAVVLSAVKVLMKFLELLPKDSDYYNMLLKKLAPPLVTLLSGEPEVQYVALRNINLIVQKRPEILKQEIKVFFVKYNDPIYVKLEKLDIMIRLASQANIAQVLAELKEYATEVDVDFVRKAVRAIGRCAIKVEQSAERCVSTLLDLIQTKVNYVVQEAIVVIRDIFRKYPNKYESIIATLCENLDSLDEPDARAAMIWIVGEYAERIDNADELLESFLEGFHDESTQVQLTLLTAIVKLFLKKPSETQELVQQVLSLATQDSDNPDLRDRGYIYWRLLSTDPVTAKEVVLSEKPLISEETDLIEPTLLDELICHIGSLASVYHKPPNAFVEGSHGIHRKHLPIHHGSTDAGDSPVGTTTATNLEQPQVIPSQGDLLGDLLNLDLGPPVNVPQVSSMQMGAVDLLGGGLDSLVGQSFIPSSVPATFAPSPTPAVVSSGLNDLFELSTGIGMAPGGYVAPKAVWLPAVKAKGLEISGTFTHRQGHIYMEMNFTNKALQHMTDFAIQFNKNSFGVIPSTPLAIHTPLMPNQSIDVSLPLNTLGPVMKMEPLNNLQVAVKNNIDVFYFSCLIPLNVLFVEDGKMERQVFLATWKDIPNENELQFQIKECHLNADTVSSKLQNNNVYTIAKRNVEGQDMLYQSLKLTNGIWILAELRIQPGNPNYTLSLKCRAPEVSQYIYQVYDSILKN
# UniProt Q03135: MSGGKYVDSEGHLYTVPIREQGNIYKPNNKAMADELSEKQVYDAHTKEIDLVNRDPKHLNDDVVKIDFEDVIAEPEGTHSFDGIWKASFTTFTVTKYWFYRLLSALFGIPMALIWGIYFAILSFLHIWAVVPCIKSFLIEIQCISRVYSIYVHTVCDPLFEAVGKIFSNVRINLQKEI
# No constants are given. Whether binding was seen depends on the method and setting. Binding seen in cells or lysates may run through a third protein. A yes stands for co-enrichment or nearness to the bait. Other partners may have been found.
# Target: ATP-binding cassette transporter A1 (ABCA1) tagged with GFP (UniProt O95477)
# Assay: affinity purification with mass spectrometry; GFP-Trap agarose on lysate of HeLa (ABCA1-GFP) cells treated with recombinant APOE3 or APOE4 (0.2 µM) for 4 h; lysis buffer 0.5% NP40, 350 mM NaCl, 20 mM Hepes, 1.2% Triton X-100; overnight at 4 °C; washed with IP buffer (PBS, 200 mM NaCl, 1 mM EDTA, 0.5% Triton X-100, 1 mM DTT); glycine elution, TCA precipitation, mass spectrometry
row,Substance,binding
1,adaptor-related protein complex 2 subunit beta 1 (from UniProt P63010 1-937),binds
2,Caveolin-1 (from UniProt Q03135 1-178),binds
